Data on two substances can be found in PMC12153744.

By UniProt entry, the sequences of proteins in these tests, tags left out. Where a name states a change or a piece, a line headed by the entry shows the natural chain unless it says otherwise.
UniProt Q03135: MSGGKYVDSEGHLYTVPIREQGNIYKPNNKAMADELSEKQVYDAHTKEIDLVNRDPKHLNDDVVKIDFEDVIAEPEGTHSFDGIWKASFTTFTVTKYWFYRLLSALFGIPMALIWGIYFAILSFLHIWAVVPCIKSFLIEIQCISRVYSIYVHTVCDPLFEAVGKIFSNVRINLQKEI
UniProt Q63HN8: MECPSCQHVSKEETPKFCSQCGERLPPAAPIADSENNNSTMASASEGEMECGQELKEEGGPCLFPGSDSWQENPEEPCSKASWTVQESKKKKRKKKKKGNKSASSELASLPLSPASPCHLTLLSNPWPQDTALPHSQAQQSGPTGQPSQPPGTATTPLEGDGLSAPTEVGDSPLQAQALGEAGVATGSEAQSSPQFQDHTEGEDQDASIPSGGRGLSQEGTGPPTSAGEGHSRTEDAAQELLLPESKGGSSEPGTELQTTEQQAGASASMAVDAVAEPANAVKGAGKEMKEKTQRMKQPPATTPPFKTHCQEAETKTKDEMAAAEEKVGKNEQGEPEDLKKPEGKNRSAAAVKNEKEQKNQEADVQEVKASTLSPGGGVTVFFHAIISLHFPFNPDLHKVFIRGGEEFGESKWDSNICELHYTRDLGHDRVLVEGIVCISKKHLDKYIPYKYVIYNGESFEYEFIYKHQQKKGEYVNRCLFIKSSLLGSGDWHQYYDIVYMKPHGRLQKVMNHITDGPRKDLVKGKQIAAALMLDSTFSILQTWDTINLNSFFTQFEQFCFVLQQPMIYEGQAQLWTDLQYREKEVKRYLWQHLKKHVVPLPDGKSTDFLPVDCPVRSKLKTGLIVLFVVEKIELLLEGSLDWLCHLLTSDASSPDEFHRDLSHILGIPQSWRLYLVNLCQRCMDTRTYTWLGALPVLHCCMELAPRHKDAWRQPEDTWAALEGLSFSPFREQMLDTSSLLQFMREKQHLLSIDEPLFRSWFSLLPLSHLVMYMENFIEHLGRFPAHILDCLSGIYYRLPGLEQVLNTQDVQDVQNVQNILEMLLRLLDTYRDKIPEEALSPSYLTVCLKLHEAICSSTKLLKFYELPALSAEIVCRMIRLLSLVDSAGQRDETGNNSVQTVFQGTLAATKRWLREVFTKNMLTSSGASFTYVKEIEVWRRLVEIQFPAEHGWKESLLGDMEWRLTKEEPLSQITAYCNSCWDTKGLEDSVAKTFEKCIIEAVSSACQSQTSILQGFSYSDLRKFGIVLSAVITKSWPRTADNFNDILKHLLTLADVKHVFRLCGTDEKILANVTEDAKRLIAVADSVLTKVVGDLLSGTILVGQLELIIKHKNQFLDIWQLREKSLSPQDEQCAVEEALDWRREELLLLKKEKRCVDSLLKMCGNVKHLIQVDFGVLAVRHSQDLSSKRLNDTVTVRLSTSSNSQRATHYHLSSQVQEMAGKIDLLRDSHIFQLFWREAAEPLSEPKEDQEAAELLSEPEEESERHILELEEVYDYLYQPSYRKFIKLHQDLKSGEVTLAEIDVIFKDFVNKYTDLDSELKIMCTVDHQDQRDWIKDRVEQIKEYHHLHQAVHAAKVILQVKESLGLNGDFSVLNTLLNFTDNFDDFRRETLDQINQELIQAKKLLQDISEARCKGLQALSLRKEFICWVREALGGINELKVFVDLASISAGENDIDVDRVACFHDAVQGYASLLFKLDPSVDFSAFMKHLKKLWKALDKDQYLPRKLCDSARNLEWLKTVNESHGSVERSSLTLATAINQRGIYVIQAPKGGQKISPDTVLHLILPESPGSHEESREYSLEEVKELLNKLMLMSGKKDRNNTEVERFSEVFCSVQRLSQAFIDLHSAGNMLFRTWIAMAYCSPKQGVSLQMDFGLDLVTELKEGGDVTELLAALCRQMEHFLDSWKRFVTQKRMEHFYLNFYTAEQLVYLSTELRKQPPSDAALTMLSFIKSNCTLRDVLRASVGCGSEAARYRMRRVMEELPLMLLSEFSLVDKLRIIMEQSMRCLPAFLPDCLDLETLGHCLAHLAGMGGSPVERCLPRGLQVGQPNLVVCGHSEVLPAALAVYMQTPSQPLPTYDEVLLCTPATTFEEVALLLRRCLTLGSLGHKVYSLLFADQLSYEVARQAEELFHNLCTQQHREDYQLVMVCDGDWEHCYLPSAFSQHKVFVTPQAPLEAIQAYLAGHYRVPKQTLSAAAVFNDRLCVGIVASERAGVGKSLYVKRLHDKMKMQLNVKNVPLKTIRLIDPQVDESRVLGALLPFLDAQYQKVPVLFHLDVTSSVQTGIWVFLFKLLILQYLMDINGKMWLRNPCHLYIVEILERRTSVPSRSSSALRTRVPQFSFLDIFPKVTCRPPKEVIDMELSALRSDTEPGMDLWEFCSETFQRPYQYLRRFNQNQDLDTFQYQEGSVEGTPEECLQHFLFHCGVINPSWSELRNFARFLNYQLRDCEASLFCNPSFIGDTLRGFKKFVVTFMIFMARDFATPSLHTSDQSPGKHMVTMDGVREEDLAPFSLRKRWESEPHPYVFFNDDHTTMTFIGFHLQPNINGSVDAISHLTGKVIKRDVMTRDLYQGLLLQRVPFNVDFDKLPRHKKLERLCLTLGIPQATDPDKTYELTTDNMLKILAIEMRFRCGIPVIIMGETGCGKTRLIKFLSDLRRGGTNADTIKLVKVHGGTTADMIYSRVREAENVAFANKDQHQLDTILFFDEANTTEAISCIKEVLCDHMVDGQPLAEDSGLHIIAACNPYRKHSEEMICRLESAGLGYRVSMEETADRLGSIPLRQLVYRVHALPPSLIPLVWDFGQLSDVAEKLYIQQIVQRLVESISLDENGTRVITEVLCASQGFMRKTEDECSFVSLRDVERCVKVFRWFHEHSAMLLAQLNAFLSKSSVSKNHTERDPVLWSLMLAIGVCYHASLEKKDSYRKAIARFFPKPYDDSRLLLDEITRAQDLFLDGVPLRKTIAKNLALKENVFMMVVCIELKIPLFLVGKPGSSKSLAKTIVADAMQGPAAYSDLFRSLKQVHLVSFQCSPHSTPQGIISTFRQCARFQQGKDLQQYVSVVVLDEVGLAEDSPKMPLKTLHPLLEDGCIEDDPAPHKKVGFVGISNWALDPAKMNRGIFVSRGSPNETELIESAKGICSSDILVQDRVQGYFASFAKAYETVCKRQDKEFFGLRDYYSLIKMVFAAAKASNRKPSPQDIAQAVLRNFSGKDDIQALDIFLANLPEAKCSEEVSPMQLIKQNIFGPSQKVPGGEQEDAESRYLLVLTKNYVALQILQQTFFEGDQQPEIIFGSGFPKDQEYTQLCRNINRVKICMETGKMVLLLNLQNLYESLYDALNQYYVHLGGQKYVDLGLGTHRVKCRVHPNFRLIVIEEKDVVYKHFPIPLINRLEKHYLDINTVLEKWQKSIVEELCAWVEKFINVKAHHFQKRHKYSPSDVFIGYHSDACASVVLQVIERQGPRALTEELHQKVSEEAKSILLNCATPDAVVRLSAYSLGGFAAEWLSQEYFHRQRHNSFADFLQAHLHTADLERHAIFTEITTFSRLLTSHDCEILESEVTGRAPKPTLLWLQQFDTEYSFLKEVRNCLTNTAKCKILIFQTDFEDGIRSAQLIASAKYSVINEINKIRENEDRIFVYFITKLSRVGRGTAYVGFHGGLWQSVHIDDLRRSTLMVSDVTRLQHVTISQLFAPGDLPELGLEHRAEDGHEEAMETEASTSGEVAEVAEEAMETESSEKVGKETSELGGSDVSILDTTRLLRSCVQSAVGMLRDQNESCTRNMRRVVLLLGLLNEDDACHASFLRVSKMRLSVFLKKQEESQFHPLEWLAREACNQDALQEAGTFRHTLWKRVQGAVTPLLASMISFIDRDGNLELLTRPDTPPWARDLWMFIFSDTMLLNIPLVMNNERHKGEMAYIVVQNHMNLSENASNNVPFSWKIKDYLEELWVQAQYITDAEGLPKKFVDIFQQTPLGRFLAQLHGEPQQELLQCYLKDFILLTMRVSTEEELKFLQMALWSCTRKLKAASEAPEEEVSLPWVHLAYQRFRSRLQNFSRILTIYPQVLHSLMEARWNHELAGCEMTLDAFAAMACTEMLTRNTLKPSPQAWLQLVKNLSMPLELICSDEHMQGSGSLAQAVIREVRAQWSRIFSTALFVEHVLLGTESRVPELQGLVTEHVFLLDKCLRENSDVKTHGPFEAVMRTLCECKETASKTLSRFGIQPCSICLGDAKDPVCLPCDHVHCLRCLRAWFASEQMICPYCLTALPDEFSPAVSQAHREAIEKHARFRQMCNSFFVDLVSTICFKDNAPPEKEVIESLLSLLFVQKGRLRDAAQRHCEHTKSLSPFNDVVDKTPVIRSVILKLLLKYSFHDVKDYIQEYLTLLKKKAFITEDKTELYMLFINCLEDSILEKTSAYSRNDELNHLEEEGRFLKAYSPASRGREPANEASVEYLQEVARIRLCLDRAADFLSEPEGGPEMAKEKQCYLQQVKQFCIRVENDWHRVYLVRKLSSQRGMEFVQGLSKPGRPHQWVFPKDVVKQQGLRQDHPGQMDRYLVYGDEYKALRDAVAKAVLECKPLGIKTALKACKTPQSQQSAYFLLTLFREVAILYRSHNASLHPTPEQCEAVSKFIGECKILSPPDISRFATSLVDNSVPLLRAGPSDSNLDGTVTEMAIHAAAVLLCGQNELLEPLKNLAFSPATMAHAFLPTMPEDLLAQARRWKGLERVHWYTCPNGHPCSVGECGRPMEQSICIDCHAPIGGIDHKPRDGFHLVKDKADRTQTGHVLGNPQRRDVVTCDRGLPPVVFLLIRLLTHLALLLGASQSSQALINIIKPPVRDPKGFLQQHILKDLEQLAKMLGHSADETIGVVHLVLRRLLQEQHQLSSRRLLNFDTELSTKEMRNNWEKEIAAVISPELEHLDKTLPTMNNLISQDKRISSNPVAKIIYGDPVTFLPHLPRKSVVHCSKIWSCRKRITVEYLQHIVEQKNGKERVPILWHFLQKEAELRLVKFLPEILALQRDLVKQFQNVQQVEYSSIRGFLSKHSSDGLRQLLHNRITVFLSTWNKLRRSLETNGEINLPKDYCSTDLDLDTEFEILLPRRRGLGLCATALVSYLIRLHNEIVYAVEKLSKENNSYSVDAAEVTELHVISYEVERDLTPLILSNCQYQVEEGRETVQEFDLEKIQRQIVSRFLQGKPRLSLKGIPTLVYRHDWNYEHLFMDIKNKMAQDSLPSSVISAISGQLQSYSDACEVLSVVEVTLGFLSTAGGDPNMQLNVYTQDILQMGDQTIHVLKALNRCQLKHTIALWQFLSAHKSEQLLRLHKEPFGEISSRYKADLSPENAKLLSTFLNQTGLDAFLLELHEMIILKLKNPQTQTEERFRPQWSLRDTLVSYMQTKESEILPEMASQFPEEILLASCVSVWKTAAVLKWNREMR

In this experiment the target is HA-Cav-1, full-length wild type (UniProt Q03135). Description: co-IP; HEK293T cells co-transfected with FLAG-tagged RNF213 (WT, fragments or mutants) and HA-tagged Cav-1 (WT, deletions or mutants); IP with anti-HA antibody; immunoblot; ratio of bound to input RNF213.

These are yes or no findings as the source states them, for the method shown. In cells and extracts the contact can be indirect. Binding calls can cover weak binding; strength is not graded here.

In the case of “RNF213 with point mutations in the putative caveolin-binding motif CBM1 (from UniProt Q63HN8)”, the binding entry is on record as “binds”.
Consider “RNF213 with point mutations in the putative caveolin-binding motif CBM2 (from UniProt Q63HN8)”, for which the binding entry is given as “binds”.
